Experimental data as given in paper PMC6156755, “Using Human Plasma as an Assay Medium in Caco-2 Studies Improves Mass Balance for Lipophilic Compounds” (Pharmaceutical Research, 2018).

Legend:
[1] = Human plasma protein binding (ultracentrifugation or rapid equilibrium dialysis); type: in vitro ADME; settings: pH 7.4; neat human plasma, 37°C, concentration comparable to Caco-2 assay; read-out: fu (fraction unbound in plasma)
Experimental: Binding was assessed using one of two methods: ultracentrifugation ([31]) using neat human plasma or rapid equilibrium dialysis (RED) using either neat or diluted plasma. […] To allow analysis with a single calibration curve, the total plasma and protein-free supernatant samples were ‘matrix-matched’ by taking aliquots of protein-free supernatant samples and adding to fresh tubes containing an equal volume of blank plasma, or taking aliquots of the total plasma samples and adding to fresh tubes containing an equal volume of Dulbecco’s phosphate-buffered saline (DPBS). […]
For the more lipophilic compounds with potential for very high binding, the RED method was used with diluted plasma to increase the chance of detecting concentrations in the dialysate samples. […] The binding in neat plasma was then calculated by correcting for the dilution as described below.
For binding measurements in neat plasma by ultracentrifugation, the fraction unbound (fu) was calculated from the ratio of the average unbound concentration in protein free supernate (Cunbound) to the average total concentration in non-centrifuged plasma (Ctotal). The standard deviation (SD) for the fu value was calculated using the propagation of errors approach as described previously ([33]). […]
For RED binding assessments using 10% plasma, the fu − diluted for individual dialysis units was calculated in the same way as described above.

in vitro = settings: human, Caco-2, pH 7.4, Papp A-B
[2] = Caco-2 permeability assay with pH 7.4 buffer or human plasma in both chambers; settings: human, Caco-2, pH 7.4, Papp A-B, buffer pH 7.4 in both chambers
Caco-2 cell monolayer [3] = assay: as above; settings: both directions (where assessed) and both media
Caco-2 cell monolayer [4] = settings: human, Caco-2, pH 7.4

| SMILES | fraction unbound [1] | Papp A→B (in vitro) [×10⁻⁶ cm/s] | Papp A→B [2] [×10⁻⁶ cm/s] | Mass balance (Caco-2 cell monolayer [3]) [%] | Increase in Papp using plasma compared to buffer (Caco-2 cell monolayer [4]) |
| --- | --- | --- | --- | --- | --- |
| CC(C)NCC(O)COc1ccc(CC(N)=O)cc1 (centres unmarked) [Atenolol, atenolol] | 0.77 | 1.1 ± 0.1 | 0.39 ± 0.051 | > 80 | – |
| COc1ccc2cc([C@H](C)C(=O)O)ccc2c1 [Naproxen, naproxen] | 0.018 | 130 ± 36 | 40 ± 7 | – | 2-3 fold |
